Laboratory results: PMC9239968
No constants are given. Whether binding was seen depends on the method and setting. In cells and extracts the contact can be indirect. Some binding calls cover weakened binding; strength is not graded here.

T1: RIP1 (mouse (endogenous in mouse brain)) (UniProt Q60855)
T1 sequence: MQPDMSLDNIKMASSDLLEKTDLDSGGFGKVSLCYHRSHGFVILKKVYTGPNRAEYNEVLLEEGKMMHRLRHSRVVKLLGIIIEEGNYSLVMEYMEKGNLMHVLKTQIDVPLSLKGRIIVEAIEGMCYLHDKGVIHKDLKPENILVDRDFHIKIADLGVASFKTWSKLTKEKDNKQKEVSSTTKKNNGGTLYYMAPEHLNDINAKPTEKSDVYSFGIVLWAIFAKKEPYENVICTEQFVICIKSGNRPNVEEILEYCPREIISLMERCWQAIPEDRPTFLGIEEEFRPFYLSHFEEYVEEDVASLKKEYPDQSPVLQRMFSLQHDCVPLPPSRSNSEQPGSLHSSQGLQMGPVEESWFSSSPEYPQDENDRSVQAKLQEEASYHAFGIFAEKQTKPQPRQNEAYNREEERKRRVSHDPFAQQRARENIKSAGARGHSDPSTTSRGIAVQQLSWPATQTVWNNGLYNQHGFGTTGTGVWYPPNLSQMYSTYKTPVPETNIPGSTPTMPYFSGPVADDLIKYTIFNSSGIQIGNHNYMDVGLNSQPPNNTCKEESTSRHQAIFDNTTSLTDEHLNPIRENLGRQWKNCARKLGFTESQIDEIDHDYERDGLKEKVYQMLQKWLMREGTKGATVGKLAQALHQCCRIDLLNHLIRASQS

T2: RIP1 (mouse (endogenous in mouse brain)), Q60855
T2 chain: T1 sequence

B1: FADD (protein, UniProt Q61160 1-205)
chain: MDPFLVLLHSLSGSLSGNDLMELKFLCRERVSKRKLERVQSGLDLFTVLLEQNDLERGHTGLLRELLASLRRHDLLQRLDDFEAGTATAAPPGEADLQVAFDIVCDNVGRDWKRLARELKVSEAKMDGIEEKYPRSLSERVRESLKVWKNAEKKNASVAGLVKALRTCRLNLVADLVEEAQESVSKSENMSPVLRDSTVSSSETP
B2: caspase-8 (protein, UniProt O89110 1-480)
chain: MDFQSCLYAIAEELGSEDLAALKFLCLDYIPHKKQETIEDAQKLFLRLREKGMLEEGNLSFLKELLFHISRWDLLVNFLDCNREEMVRELRDPDNAQISPYRVMLFKLSEEVSELELRSFKFLLNNEIPKCKLEDDLSLLEIFVEMEKRTMLAENNLETLKSICDQVNKSLLGKIEDYERSSTERRMSLEGREELPPSVLDEMSLKMAELCDSPREQDSESRTSDKVYQMKNKPRGYCLIINNHDFSKAREDITQLRKMKDRKGTDCDKEALSKTFKELHFEIVSYDDCTANEIHEILEGYQSADHKNKDCFICCILSHGDKGVVYGTDGKEASIYDLTSYFTGSKCPSLSGKPKIFFIQACQGSNFQKGVPDEAGFEQQNHTLEVDSSSHKNYIPDEADFLLGMATVKNCVSYRDPVNGTWYIQSLCQSLRERCPQGDDILSILTGVNYDVSNKDDRRNKGKQMPQPTFTLRKKLFFPP
B3: MLKL (protein, UniProt Q9D2Y4 1-472)
chain: MDKLGQIIKLGQLIYEQCEKMKYCRKQCQRLGNRVHGLLQPLQRLQAQGKKNLPDDITAALGRFDEVLKEANQQIEKFSKKSHIWKFVSVGNDKILFHEVNEKLRDVWEELLLLLQVYHWNTVSDVSQPASWQQEDRQDAEEDGNENMKVILMQLQISVEEINKTLKQCSLKPTQEIPQDLQIKEIPKEHLGPPWTKLKTSKMSTIYRGEYHRSPVTIKVFNNPQAESVGIVRFTFNDEIKTMKKFDSPNILRIFGICIDQTVKPPEFSIVMEYCELGTLRELLDREKDLTMSVRSLLVLRAARGLYRLHHSETLHRNISSSSFLVAGGYQVKLAGFELSKTQNSISRTAKSTKAERSSSTIYVSPERLKNPFCLYDIKAEIYSFGIVLWEIATGKIPFEGCDSKKIRELVAEDKKQEPVGQDCPELLREIINECRAHEPSQRPSVDGRSLSGRERILERLSAVEESTDKKV
B4: receptor interacting kinase protein3 (RIP3), Q9QZL0 1-486 (protein)
chain: MSSVKLWPTGASAVPLVSREELKKLEFVGKGGFGVVFRAHHRTWNHDVAVKIVNSKKISWEVKAMVNLRNENVLLLLGVTEDLQWDFVSGQALVTRFMENGSLAGLLQPECPRPWPLLCRLLQEVVLGMCYLHSLNPPLLHRDLKPSNILLDPELHAKLADFGLSTFQGGSQSGSGSGSGSRDSGGTLAYLDPELLFDVNLKASKASDVYSFGILVWAVLAGREAELVDKTSLIRETVCDRQSRPPLTELPPGSPETPGLEKLKELMIHCWGSQSENRPSFQDCEPKTNEVYNLVKDKVDAAVSEVKHYLSQHRSSGRNLSAREPSQRGTEMDCPRETMVSKMLDRLHLEEPSGPVPGKCPERQAQDTSVGPATPARTSSDPVAGTPQIPHTLPFRGTTPGPVFTETPGPHPQRNQGDGRHGTPWYPWTPPNPMTGPPALVFNNCSEVQIGNYNSLVAPPRTTASSSAKYDQAQFGRGRGWQPFHK
B5: RIP1, Q60855 1-656 (protein)
chain: T1 sequence
B6: FADD, Q61160 1-205 (protein)
chain: B1 chain

Key:
[1] = molecular target: T1, RIP1 (mouse (endogenous in mouse brain)); test: co-IP; lysates of whole-brain tissue from AC-infected (21 days) and normal control mice; immunoprecipitated with anti-RIP1 antibody or IgG control, protein G agarose, 4 °C; immunoblotting of the precipitate
[2] = molecular target: receptor interacting kinase protein3 (RIP3) (mouse (endogenous in mouse brain)) (UniProt Q9QZL0); test: co-IP; lysates of brain tissue from AC-infected (21 days) and normal control mice; immunoprecipitated with anti-RIP3 antibody or IgG antibody, protein G agarose, 4 °C; immunoblotting of the precipitate
[3] = molecular target: T2, RIP1 (mouse (endogenous in mouse …)); test: co-IP; lysates of whole-brain tissue from AC-infected (21 days) and normal control mice; immunoprecipitated with anti-RIP1 antibody or IgG control, protein G agarose, 4 °C; immunoblotting of the precipitate; conditions: remark: other sources report otherwise
[4] = molecular target: receptor interacting kinase protein3 (RIP3) (mouse (endogenous in mouse brain)), Q9QZL0; test: co-IP; lysates of brain tissue from AC-infected (21 days) and normal control mice; immunoprecipitated with anti-RIP3 antibody or IgG antibody, protein G agarose, 4 °C; immunoblotting of the precipitate; conditions: remark: other sources report otherwise

Binder	binding [1]	binding [4]	also measured
B1	binds	–	–
B2	binds	–	–
B3	–	–	binding [2]: binds
B4	–	–	binding [3]: no binding
B5	–	no binding	–
B6	–	no binding	–
